From patent US20260116980A1
No constants are given. Whether binding was seen depends on the method and setting. Some results given as binding are weak or reduced against the parent protein; the word gives no strength.

Molecular target: cyno B7H3 on overexpressing cells (cyno)
Assay: FACS on NK92mi/cynoB7H3 cells, serially diluted antibody, APC-conjugated secondary antibody

binding: binds
B1: BGA-3726 (purified anti-B7H3 mAb as used in Examples 2-4) (antibody, V domains shown)
VH: QVQLQESGPGLVKPSGTLSLTCAVSGGSISTSNWWNWVRQSPGKGLEWIGEIYPTGNTNYSPSLKSRVTISIDKSKNQFSLKLNSVTAADTAVYYCARGWNWFDPWGQGTLVTVSS
VL: EIVLTQSPGTLSLSPGERATLSCRTSQSINGILLAWYQQKPGQAPRLLIYGASSRATGIPDRFSGSGSGTDFTLSISRLEPEDFAVYYCQQYGSSPRTFGQGTKVEIK
